Test results from doi:10.1101/241331.
Results are given in words; binding and its absence hold for the method and conditions named. In cells and extracts the contact can be indirect. Some binding calls cover weakened binding; strength is not graded here.

By UniProt entry, the sequences of proteins in these tests, tags left out.
UniProt Q8C7M3: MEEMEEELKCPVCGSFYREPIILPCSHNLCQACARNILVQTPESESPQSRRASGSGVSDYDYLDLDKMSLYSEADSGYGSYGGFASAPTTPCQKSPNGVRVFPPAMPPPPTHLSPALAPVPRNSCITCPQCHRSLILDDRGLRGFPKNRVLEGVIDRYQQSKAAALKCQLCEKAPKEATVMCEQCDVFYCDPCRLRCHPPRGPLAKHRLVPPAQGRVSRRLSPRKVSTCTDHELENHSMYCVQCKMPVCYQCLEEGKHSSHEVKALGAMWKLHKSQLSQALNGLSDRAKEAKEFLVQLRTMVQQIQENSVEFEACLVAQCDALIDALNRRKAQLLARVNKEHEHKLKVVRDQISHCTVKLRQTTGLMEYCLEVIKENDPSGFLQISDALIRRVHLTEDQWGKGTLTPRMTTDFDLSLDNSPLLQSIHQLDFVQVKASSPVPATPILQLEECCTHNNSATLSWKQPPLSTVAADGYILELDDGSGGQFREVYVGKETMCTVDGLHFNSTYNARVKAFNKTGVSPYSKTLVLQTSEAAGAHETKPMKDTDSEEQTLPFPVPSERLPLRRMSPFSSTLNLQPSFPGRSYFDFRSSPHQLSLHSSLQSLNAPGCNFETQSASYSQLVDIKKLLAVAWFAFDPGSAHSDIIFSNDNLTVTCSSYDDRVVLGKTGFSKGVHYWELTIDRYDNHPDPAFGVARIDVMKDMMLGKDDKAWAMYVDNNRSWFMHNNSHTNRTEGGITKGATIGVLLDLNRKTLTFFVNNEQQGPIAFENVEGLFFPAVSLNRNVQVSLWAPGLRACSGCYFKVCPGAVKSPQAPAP

Target: endogenous TRIM9 (mouse embryonic cortical neurons) (mouse (endogenous in embryonic cortical neurons)) (UniProt Q8C7M3)
Experiment: co-IP

B1: endogenous TRIM67 (mouse embryonic cortical neurons) (protein, UniProt Q505D9 1-768)
chain: MEEELKCPVCGSLFREPIILPCSHNVCLPCARTIAVQTPDGEQHLPPPLLLSRGAAAAATPPDQDAAAGATSGGAGANTAGGLGGGATGGGDHADKLSLYSETDSGYGSYTPSLKSPNGVRVLPMVPAPPGSSAAAARGAACSSLCSSSSSITCPQCHRSASLDHRGLRGFQRNRLLEGIVQRYQQGRGVVPGAAAAPAVAICQLCDRTPPEPAATLCEQCDVLYCATCQLKCHPSRGPFAKHRLVQPPPPPTPPEATPAVTGTSTASSAGGCRSPGGAGASAPRKFPTCPEHEMENYSMYCVSCRSPVCYMCLEEGRHSKHEVKPLGATWKQHKAQLSQALNGVSDKAKEAKEFLVQLKNILQQIQENGLDYEACLVAQCDALVDALTRQKAKLLTKVTKEREHKLKMVWDQINHCTLKLRQSTGLMEYCLEVIKEDDPSGFLQISDALIKRVQTSQEQWVKGALEPKVSAEFDLTLDSEPLLQAIHQLDFVQMKLPPVPLLQLEKCCTRNNSVTLAWRTPPFTHSPAEGYILELDDGDGGQFREVYVGKETLCTIDGLHFNSTYNARVKAFNSSGVGPYSKTVVLQTSDVAWFTFDPNSGHRDIILSNDNQTATCSSYDDRVVLGTAAFSKGVHYWELHVDRYDNHPDPAFGVARASVVKDMMLGKDDKAWAMYVDNNRSWFMHCNSHTNRTEGGVCKGATVGVLLDLNKHTLTFFINGQQQGPTAFSHVDGVFMPALSLNRNVQVTLHTGLEVPTNLGRPKLSGN
binding: binds
